Data on one compound can be found in US9950067B2, “Trans carotenoids, their synthesis, formulation and uses” (Diffusion Pharmaceuticals, LLC, priority 2005, dated 2018).

This series in a line: Endotoxin removal of gamma-cyclodextrin by filtration. Conditions: 8% gamma cyclodextrin solution.

As for `OC[C@H]1O[C@@H]2O[C@H]3[C@H](O)[C@@H](O)[C@@H](O[C@H]4[C@H](O)[C@@H](O)[C@@H](O[C@H]5[C@H](O)[C@@H](O)[C@@H](O[C@H]6[C@H](O)[C@@H](O)[C@@H](O[C@H]7[C@H](O)[C@@H](O)[C@@H](O[C@H]8[C@H](O)[C@@H](O)[C@@H](O[C@H]9[C@H](O)[C@@H](O)[C@@H](O[C@H]1[C@H](O)[C@H]2O)O[C@@H]9CO)O[C@@H]8CO)O[C@@H]7CO)O[C@@H]6CO)O[C@@H]5CO)O[C@@H]4CO)O[C@@H]3CO` [gamma cyclodextrin], the Endotoxin levels is recorded as 0.0246 EU/mg of cyclodextrin (after 1 filtration), 0.0125 EU/mg of cyclodextrin (after 2 filtrations), 0.0125 EU/mg of cyclodextrin (after 3 filtrations) and 0.226 EU/mg of cyclodextrin (prefiltered).
